Assay results reported in article PMC6724258.
No constants are given. Whether binding was seen depends on the method and setting. Binding seen in cells or lysates may run through a third protein. Some entries that bind do so weakly or less than the wild type.

The chains behind the UniProt entries cited, without tags or fusion partners. Where a name states a change or a piece, a line headed by the entry shows the natural chain unless it says otherwise. A line that says so, or that is headed by a name, gives the form on record, which may keep a tag or linker.
UniProt Q9UBK9: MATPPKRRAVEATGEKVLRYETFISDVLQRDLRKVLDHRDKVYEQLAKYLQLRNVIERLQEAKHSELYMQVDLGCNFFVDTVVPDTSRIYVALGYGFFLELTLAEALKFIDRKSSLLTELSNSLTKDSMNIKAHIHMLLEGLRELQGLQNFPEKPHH
HA-EZH2 (Q15910-2, form named): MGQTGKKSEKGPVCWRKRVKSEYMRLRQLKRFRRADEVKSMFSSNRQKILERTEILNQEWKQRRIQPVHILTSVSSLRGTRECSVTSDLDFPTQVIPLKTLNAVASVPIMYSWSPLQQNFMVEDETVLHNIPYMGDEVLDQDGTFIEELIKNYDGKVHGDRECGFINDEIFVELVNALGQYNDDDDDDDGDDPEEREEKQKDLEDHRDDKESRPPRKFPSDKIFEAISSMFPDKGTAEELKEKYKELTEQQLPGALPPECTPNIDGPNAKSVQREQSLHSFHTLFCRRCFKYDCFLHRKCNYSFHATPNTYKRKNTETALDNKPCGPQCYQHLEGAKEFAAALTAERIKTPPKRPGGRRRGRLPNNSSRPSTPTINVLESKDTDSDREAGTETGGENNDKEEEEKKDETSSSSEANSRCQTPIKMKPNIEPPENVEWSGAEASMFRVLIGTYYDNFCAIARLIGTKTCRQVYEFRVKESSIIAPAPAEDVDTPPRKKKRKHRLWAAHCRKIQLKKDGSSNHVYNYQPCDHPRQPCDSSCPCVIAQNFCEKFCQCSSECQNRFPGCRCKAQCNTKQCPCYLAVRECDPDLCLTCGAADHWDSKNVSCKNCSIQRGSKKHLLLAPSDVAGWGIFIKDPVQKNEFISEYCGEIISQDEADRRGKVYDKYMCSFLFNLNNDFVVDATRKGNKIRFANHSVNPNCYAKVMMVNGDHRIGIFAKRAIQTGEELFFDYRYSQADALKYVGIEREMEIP

Experiments:
[1] = molecular target: GST-UXT (human) (UniProt Q9UBK9); assay: pull-down; GST, GST-EZH2 or GST-UXT purified from E. coli on glutathione-Sepharose 4B, incubated with lysates of HEK293T cells transfected with Flag-UXT or Flag-EZH2; immunoblot with anti-Flag; only the target purified
[2] = molecular target: Flag-UXT (human) (UniProt Q9UBK9); assay: co-IP; co-transfected 786-O cells (EZH2 wild type), whole cell lysate, precipitated with anti-Flag, blotted with anti-Myc or anti-HA
[3] = molecular target: Flag-UXT (human) (UniProt Q9UBK9); assay: co-IP; co-transfected HEK293T (293 T) cells, whole cell lysate, precipitated with anti-Flag, blotted with anti-Myc or anti-HA; in some panels with overexpressed EZH2 or UXT

binding [1] | binding [2] | binding [3] | Substance
binds |  |  | Flag-EZH2 (from UniProt Q15910-2 1-751)
 | binds | binds | HA-EZH2 (from UniProt Q15910-2 1-751)
